In patent publication US7413853B2, “Modulation of metabolism of steroids and xenobiotics” (The Salk Institute for Biological Studies, priority 2001, dated 2008):

System: SXR
Method: To characterize its response properties, a large variety of steroids, including intermediate and major products of known steroid biosynthetic pathways were tested.

COC(=O)C1=C(C)NC(C)=C(C(=O)OC)C1c1ccccc1[N+](=O)[O-] [nifedipine]
activation of SXR by compounds known to induce CYP3A4: most potent activators
